These are yes or no findings as the source states them, for the method shown. Binding seen in cells or lysates may run through a third protein. A yes stands for co-enrichment or nearness to the bait. Other partners may have been found. Where a sequence is shown, tags or fusion partners need not be part of it.
Target: T1, dTBCE-GFP (Drosophila melanogaster tubulin-binding co-factor E, C-terminal GFP fusion), stable S2 cell line (Drosophila melanogaster) (UniProt A1Z6J5)
T1 sequence: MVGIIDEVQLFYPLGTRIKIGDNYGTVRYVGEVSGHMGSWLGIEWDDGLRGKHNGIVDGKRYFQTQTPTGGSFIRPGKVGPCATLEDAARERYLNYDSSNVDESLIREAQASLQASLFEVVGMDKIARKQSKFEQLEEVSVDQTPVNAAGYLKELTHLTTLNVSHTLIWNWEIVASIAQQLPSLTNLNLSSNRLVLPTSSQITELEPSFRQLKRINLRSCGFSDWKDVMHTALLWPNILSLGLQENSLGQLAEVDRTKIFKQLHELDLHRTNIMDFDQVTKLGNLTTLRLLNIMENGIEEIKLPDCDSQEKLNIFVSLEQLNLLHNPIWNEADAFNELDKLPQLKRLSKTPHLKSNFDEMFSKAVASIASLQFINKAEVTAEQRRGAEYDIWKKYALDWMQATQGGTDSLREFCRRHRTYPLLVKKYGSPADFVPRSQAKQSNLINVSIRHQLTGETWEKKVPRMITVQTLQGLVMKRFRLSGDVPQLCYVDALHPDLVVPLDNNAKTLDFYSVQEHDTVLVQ
Experiment: affinity purification with mass spectrometry

binding: binds
Substance: Ran (from UniProt Q9VZ23 1-216)

Reference: publication doi:10.1101/2020.01.21.912428
